These results are taken from PMC10164326.

Sequences of proteins named here, by UniProt entry; tags and fusion partners are left off.
UniProt O00308: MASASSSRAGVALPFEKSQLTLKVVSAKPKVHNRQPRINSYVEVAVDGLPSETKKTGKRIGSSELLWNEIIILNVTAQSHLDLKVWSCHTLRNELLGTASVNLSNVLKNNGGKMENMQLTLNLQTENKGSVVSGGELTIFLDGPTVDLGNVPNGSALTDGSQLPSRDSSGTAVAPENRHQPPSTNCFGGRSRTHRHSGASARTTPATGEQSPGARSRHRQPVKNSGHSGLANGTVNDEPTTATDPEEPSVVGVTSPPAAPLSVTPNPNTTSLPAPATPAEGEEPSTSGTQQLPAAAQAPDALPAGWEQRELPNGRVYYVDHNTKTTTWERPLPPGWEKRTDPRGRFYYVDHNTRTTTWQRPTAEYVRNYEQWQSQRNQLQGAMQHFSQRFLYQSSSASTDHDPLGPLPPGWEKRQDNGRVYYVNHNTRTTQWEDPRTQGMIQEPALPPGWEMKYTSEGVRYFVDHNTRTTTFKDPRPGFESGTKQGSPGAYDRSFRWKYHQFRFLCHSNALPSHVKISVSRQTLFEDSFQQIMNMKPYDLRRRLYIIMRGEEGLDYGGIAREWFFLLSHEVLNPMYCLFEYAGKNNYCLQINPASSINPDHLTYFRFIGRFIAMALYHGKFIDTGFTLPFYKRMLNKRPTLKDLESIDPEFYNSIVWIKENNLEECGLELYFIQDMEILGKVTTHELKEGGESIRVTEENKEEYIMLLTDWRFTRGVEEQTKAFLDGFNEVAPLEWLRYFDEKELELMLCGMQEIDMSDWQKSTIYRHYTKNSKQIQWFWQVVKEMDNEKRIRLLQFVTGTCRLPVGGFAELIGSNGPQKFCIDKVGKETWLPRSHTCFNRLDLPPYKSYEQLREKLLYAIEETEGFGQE
UniProt O00571: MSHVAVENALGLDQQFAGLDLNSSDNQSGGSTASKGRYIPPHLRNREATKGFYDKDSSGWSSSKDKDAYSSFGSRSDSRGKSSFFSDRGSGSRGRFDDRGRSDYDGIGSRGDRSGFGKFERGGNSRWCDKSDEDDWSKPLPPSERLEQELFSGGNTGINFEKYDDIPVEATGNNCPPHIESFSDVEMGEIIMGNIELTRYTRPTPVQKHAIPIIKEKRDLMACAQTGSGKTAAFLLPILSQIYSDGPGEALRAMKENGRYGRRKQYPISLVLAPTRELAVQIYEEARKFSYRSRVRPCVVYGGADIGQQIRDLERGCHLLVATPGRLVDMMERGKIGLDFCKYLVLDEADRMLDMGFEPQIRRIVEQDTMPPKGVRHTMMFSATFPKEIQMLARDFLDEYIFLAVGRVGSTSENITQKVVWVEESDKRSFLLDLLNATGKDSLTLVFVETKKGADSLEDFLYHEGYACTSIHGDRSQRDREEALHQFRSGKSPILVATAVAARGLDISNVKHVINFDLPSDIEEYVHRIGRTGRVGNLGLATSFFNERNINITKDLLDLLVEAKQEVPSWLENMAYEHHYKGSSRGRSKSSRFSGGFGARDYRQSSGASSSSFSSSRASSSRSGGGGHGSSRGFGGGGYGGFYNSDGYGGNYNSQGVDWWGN

The target of the test is WW domain-containing E3 ubiquitin protein ligase 2 (WWP2), endogenous (human (endogenous in HUVECs)) (UniProt O00308). The test is described as follows: co-IP; endogenous proteins in HUVEC lysates (50 mM Tris pH 7.8, 137 mM NaCl, 1 mM EDTA, 1% NP-40, 10% glycerol); anti-WWP2 or anti-DDX3X antibody 3 h, then protein A/G agarose 12 h at 4 °C; western blot; cells with or without HG/PA for 48 h. (In general: In western blotting, separated proteins are transferred to a membrane and probed.)

These are yes or no findings as the source states them, for the method shown. In cells and extracts the contact can be indirect. Some binding calls cover weakened binding; strength is not graded here.

On to “DEAD-box helicase 3 X-linked (DDX3X), endogenous (from UniProt O00571 1-662)”, for which the binding entry was “binds”.
